{
  "sequences": {"note": "Protein sequences, listed by entry. Tags and fused reporters are not part of them.", "UniProt O00482, whole entry": "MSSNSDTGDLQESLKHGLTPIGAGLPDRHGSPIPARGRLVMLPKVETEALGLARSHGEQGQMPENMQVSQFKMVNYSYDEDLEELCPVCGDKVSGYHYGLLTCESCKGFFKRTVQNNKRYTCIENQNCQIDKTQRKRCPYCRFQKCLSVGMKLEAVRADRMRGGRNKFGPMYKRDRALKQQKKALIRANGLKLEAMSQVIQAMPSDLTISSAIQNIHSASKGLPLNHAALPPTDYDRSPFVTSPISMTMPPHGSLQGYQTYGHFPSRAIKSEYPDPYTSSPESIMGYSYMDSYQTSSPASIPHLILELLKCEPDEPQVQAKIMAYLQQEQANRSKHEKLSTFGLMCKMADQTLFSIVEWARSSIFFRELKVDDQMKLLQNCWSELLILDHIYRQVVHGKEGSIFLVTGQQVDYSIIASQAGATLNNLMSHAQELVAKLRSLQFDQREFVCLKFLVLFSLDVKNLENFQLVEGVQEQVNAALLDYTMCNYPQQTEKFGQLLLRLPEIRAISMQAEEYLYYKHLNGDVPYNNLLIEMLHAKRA"},
  "source": "patent US12415770B2",
  "about": "“Modulators of liver receptor homologue 1 (LRH-1) and uses” (Emory University, priority 2017, dated 2025)",
  "target": "T1, LRH-1 (Homo sapiens, UniProt O00482)",
  "T1 construct": "The transfected plasmids included full-length LRH-1 in a pCI vector; expressed in transfected cells; host or cells: HeLa",
  "assay": "Luciferase reporter assay (SHP-luc) in HeLa cells transfected with full-length LRH-1",
  "assay_type": "cell-based",
  "experimental": "EC50 and Relative Activity values were calculated from luciferase reporter assays.",
  "note": "At least one structure is not confirmed: it was looked up by name or label, or the drawing left a doubt.",
  "data": [
    {"smiles": "C=C(c1ccccc1)C12CCC(CN)C1CC(CCCCCC)=C2c1ccccc1", "note": "(stereo not drawn) [Compound 48-endo, (endo or exo) (5-hexyl-4-phenyl-3a-(1-phenylvinyl)-1,2,3,3a,6,6a-hexahydropentalen-1-10 yl)methanamine]", "values": [
      {"measurement": "EC50 (μM)", "setting": "HeLa cells, SHP-luc reporter, 24 hours, 0.03-30 μM", "result": "cnc"},
      {"measurement": "LRH-1 activation", "setting": "WT LRH-1", "result": "dose-dependent inhibition of LRH-1 activity"},
      {"measurement": "Relative Efficacy", "setting": "fold increase over baseline (DMSO-treated cells) relative to the fold increase induced by RJW100", "result": 0}
    ]}
  ]
}
